Legend:
[1] = tested on: SARS-CoV-2 spike pseudotyped particle (PP); assay: microbe, parasite or virus in culture; type: cell-based; conditions: Severe acute respiratory syndrome coronavirus 2, HEK-293T, 48 h, read-out: PP EC50
SARS-CoV-2 = conditions: cited from earlier work

In the case of `CN(C)CCCN1c2ccccc2CCc2ccc(Cl)cc21` [clomipramine], the EC50 [1] is listed as 8.28 ± 0.46 µM and the EC50 (SARS-CoV-2) is listed as 5.93 µM.

— paper PMC7771250 (ACS Infectious Diseases, 2020)
